# Primary screen of a compound library

Mtb growth Cornell: 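Whole-cell assay for inhibitors of Mycobacterium tuberculosis growth, labelled Cornell in the record; the read-out is not stated. The concentration is filed as 10 mM, unlikely as a test dose, so the dose is not known. The record gives no direction; compounds strong in two other growth screens of this library score well above the rest, so higher reads as stronger inhibition. About 53,000 compounds were tested under these conditions; 1.7% (about 900) showed 50% or more at least once.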
Mtb heat-shock: 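Assay on Mycobacterium tuberculosis, filed only as a heat shock assay from Cornell; the read-out is not stated. The concentration is filed as 10 mM, unlikely as a test dose, so the dose is not known. Higher reads as stronger inhibition (inferred: compounds with an IC50 in retests scored well above the rest). Size under these conditions: about 69,000 compounds, about 930 of them at 50% or above in at least one test.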

Each number is a percent effect as filed. How 0% and 100% were set is not recorded. Most values in the screen are low, and negative values occur. Compounds were drawn at random from those tested, without regard to their results. A dash means the value is not listed here; it may have been measured.

structure,Mtb growth Cornell,Mtb heat-shock
COCCNC(=O)c1cc(-c2cc[nH]n2)n2ccccc12.O=C(O)C(F)(F)F,27.36%,-6.749%
FC(F)(F)c1ccnc(N2CCCCCC2)c1,8.918%,1.649%
CCN(CC)C(=O)Cn1cc(C(=O)NCCCc2scnc2C)nn1,20.44%,-1.342%
CCN(CC1CCOC1)C(=O)c1ccn(-c2cc(C)ccc2OC)n1 (stereo not shown),-,10.06%
CC(Cn1cccn1)NC(=O)Nc1nccs1 (stereo not shown),8.252%,10.8%
CCCn1c(NC(=O)CNC(=O)OCC)nc2ccccc21,-,14.65%
c1cnnc(NCC2CN(CCn3cccn3)CCO2)c1 (stereo not shown),9.596%,-6.084%
O=C(NCc1cccnc1)C1=NOC2(CCN(C(=O)N3CCCC3)C2)C1.O=C(O)C(F)(F)F (stereo not shown),15.48%,-16.89%
c1ncn(CC2CN(CC3CCCCC3)CCO2)n1 (stereo not shown),-,-33.22%
CCC(NCCn1cccn1)C(=O)Nc1cc(C)on1 (stereo not shown),-,-175.2%
CC(N)Cc1ccccc1Sc1ccc(O)cc1.CC(N)Cc1ccccc1Sc1ccc(O)cc1.O=C(O)C(=O)O (stereo not shown),102.6%,54.17%
CC1CCN(C(=O)C(C)n2cc(Br)cn2)CC1 (stereo not shown),-,-8.007%
Cc1cnn(C2CCCN(C(=O)CCCOc3ccccc3F)C2)c1 (stereo not shown),-,-28.59%
CNc1nc2c(s1)C(c1ccccc1Cl)CC(=O)N2 (stereo not shown),45.9%,2.263%
O=C(c1cccc(-n2cccn2)c1)N1CCCOC(CN2CCCC2)C1 (stereo not shown),9.035%,-7.882%
CN(C)c1ccc(C2CC(=O)Nc3c2cnn3Cc2ccco2)cc1 (stereo not shown),41.37%,10.95%
CC(=O)N1CCCN(C(=O)NC(C)Cn2cccn2)CC1 (stereo not shown),-,-2.16%
CCc1noc(C(C)N(C)CC(=O)Nc2ccc(Br)cc2C)n1 (stereo not shown),49.06%,-21.19%
CCN1CC2(CC1=O)CN(Cc1ccccn1)CCN(C(C)=O)C2.O=C(O)C(F)(F)F.O=C(O)C(F)(F)F (stereo not shown),21.87%,-3.228%
O=C(NCc1nncn1C1CC1)c1ccc(F)c(COCC2CC2)c1,-30.53%,-14.06%
Cc1ccc(NC2CCN(C(=O)c3cccc4ncccc34)CC2)nn1,-,7.82%
CCc1ccc(CN2CCc3ncnc(N4CCOCC4)c3CC2)o1.O=C(O)C(F)(F)F,8.334%,-15.33%
CCc1noc(-c2ccc(SCC(=O)O)nc2)n1,4.027%,5.24%
Cc1cnccc1N1CCN(c2nccc(CCC(F)(F)F)n2)CC1,28.93%,0.4978%
Cc1nc(C)n(CC2CCCN2CCCc2nc3ccccc3o2)n1 (stereo not shown),0.1227%,-5.027%
CCN(C)S(=O)(=O)NCC1CCN(Cc2ccccc2C)CC1,20.07%,-11.07%
Cc1n[nH]c(C)c1CCC(=O)N[C@@H]1CCC[C@@H](Oc2ccccc2)[C@@H]1O,-14.05%,-15.12%
COCCNC(=O)[C@H]1C[C@@](CC(C)C)(C(=O)O)N(C)[C@H]1c1cccnc1,-15.25%,-13.69%
[H][C@]12CN(c3ccnc(N)n3)CC[C@@]1(O)CCN(S(C)(=O)=O)C2,-,-147.1%
CC1CCCN(c2ncc(-c3ccccc3F)c(-c3nccn3C)n2)C1 (stereo not shown),50%,84.22%
O=C(C1CNCCO1)N1CCC(c2cc(N3CCCC3)ncn2)CC1 (stereo not shown),-32.29%,-12.83%
COCCO[C@H]1CCN(c2cc(OC)ncn2)[C@H]1Cc1cccnc1.O=C(O)C(F)(F)F,-7.897%,-4.3%
O=C1CC(CNc2cncc(Br)c2)c2ccccc2N1 (stereo not shown),-14.76%,-3.913%
CN1CC2(CCN(C(=O)c3cn4cccnc4n3)CC2)CC1=O,0.894%,-9.879%
COCC1COCCC12CCN(S(=O)(=O)c1cccnc1)CC2.O=C(O)C(F)(F)F (stereo not shown),17.7%,-3.749%
CN(C)[C@@H]1CCN(C(=O)Cc2cccs2)[C@H]1Cc1ccncc1.O=C(O)C(F)(F)F.O=C(O)C(F)(F)F,4.695%,-5.714%
COc1ccc(OCCNC(=O)CN(C)Cc2nnc(C)n2C)cc1,-20.43%,-14.67%
CCC(C)N(Cc1c[nH]c(C)n1)Cc1ccccc1Cl (stereo not shown),23.66%,13.93%
CCc1nc(CN2CCCN(C(=O)C3CCC3)CC2)cs1,-42.45%,-8.369%
O=C1N(c2ccc(Cl)cc2)Cc2nc(=O)[nH]n21,-68.59%,12.04%
[H][C@@]12CS(=O)(=O)C[C@]1([H])N(C(=O)c1snnc1C)CCN2C(=O)C1CCC1,-20.06%,12.49%
Cc1ccoc1-c1nnc(CNCCn2cccn2)o1,-13.89%,-0.7502%
COCC(=O)N(C)Cc1nc(N(C)C)ncc1-c1ccncc1,3.181%,-28.57%
CS(=O)(=O)NC1CCc2[nH]c(=O)ccc2C1 (stereo not shown),9.541%,27.9%
CCC(C)(NCc1cccc(NC(C)=O)c1)c1nc(C)cs1 (stereo not shown),-,5.933%
CCc1ccc(NC(=O)CCN2CC(n3nc(C)cc3C)C2)cc1,2.448%,18.18%
O=C(CN1CCCC1c1nc(-c2ccccn2)no1)N1CCNCC1 (stereo not shown),16.36%,4.166%
CC(NCc1cc(O)c2cccc(F)c2n1)c1ccccc1O (stereo not shown),-0.4668%,-14.05%
Cc1cc(NC(=O)CN2CCn3c(nnc3C(C)C)C2)on1,-9.497%,-3.224%
COc1ccc(C(CO)NC(=O)Nc2cccc(F)c2)cc1 (stereo not shown),9.984%,-5.267%
CC(c1ccccc1F)N(CC(N)=O)C1CC1 (stereo not shown),25.26%,10.76%
NC(=O)Nc1cc(F)ccc1SCC(F)F,-,5.99%
O=C(c1cc(C2CC2)[nH]n1)N1CCN(Cc2ccccc2)CC1,7.865%,1.712%
O=C1CCCN1CCN1CCC(c2ccn[nH]2)CC1,-,-3.339%
CC(=O)c1cc(CC(=O)NCc2c(F)cccc2F)cs1,-,-1.795%
Cc1nccc(CNC(=O)N2CCN(Cc3ccccc3)C[C@H]2C)n1,11.02%,-7.574%
CCCc1nccn1-c1ccc(C(C)O)cc1 (stereo not shown),12.08%,19.6%
N#Cc1cccc(S(=O)(=O)NC2CCN(Cc3ccccc3)C2=O)c1 (stereo not shown),11.81%,-0.8045%
CN1CCN(CCCNC(=O)CCc2nc3cc(Br)cnc3[nH]2)CC1,16.08%,4.775%
O=C(O)C(F)(F)F.[H][C@@]12COC[C@]1([H])[C@H](OCc1csc(C)n1)CN2Cc1cnn(C)c1,42.97%,-29.98%
CCOc1ccc(N2CCCN=C2NC(=O)c2ccc(OC)cc2)cc1,-,36.29%
[H][C@@]12CCN(S(=O)(=O)c3cccnc3)[C@]1([H])CC[C@@H](c1nnc(C)o1)O2,-3.199%,1.267%
O=C(CCn1ccc(=O)[nH]c1=O)N1CCC(OCc2cccnc2)CC1,-9.016%,-7.911%
O=C(c1ccccn1)N1CCN(C(c2ccccc2)C(F)(F)F)CC1 (stereo not shown),-20.19%,-21.19%
COc1ccc(CNC2CCc3ncnn3C2)cc1OCCCC#N (stereo not shown),11.49%,14.07%
COc1ccc(OC)c(-c2csc(-c3cccc(C(=O)O)c3)n2)c1,-,6.12%
CCN1CCOCC12CCN(C(=O)Cc1ccccc1)CC2.O=C(O)C(F)(F)F,22.04%,-16.25%

Once more, the final 4:

With O=C(c1ccccn1)N1CCN(C(c2ccccc2)C(F)(F)F)CC1 (stereo not shown) the screen gave Mtb growth Cornell: -20.19%; Mtb heat-shock: -21.19%.
With COc1ccc(CNC2CCc3ncnn3C2)cc1OCCCC#N (stereo not shown) the screen gave Mtb growth Cornell: 11.49%; Mtb heat-shock: 14.07%.
With COc1ccc(OC)c(-c2csc(-c3cccc(C(=O)O)c3)n2)c1 the screen gave Mtb heat-shock: 6.12%.
With CCN1CCOCC12CCN(C(=O)Cc1ccccc1)CC2.O=C(O)C(F)(F)F the screen gave Mtb growth Cornell: 22.04%; Mtb heat-shock: -16.25%.

Measurements from “University of Dundee, Small-Polar-MMV Screening Library” (2021), ChEMBL document CHEMBL3988442.